According to article doi:10.1101/2020.04.06.027847:
Results are given in words; binding and its absence hold for the method and conditions named. Some binding calls cover weakened binding; strength is not graded here.

Molecular target: T1, Scs3 (S. cerevisiae) (UniProt P53012)
T1 sequence: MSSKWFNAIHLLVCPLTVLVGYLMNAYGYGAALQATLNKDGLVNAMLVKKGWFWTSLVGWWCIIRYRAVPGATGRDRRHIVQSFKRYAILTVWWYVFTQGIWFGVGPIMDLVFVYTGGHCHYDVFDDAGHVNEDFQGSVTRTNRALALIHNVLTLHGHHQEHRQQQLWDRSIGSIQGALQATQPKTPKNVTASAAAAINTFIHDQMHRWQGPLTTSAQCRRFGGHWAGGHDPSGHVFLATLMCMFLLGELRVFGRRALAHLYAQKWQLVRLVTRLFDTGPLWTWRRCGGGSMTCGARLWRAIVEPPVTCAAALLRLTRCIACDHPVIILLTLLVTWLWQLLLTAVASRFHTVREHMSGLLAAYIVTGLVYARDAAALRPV
Assay: two-hybrid

Row | binding | Binder
1 | binds | Zuo1 (protein, UniProt P32527 1-433) MFSLPTLTSDITVEVNSSATKTPFVRRPVEPVGKFFLQHAQRTLRNHTWSEFERIEAEKNVKTVDESNVDPDELLFDTELADEDLLTHDARDWKTADLYAAMGLSKLRFRATESQIIKAHRKQVVKYHPDKQSAAGGSLDQDGFFKIIQKAFETLTDSNKRAQYDSCDFVADVPPPKKGTDYDFYEAWGPVFEAEARFSKKTPIPSLGNKDSSKKEVEQFYAFWHRFDSWRTFEFLDEDVPDDSSNRDHKRYIERKNKAARDKKKTADNARLVKLVERAVSEDPRIKMFKEEEKKEKERRKWEREAGARAEAEAKAKAEAEAKAKAESEAKANASAKADKKKAKEAAKAAKKKNKRAIRNSAKEADYFGDADKATTIDEQVGLIVDSLNDEELVSTADKIKANAAGAKEVLKESAKTIVDSGKLPSSLLSYFV
2 | binds | Doa10 (protein, UniProt P40318 1-1319) MDVDSDVNVSRLRDELHKVANEETDTATFNDDAPSGATCRICRGEATEDNPLFHPCKCRGSIKYMHESCLLEWVASKNIDISKPGADVKCDICHYPIQFKTIYAENMPEKIPFSLLLSKSILTFFEKARLALTIGLAAVLYIIGVPLVWNMFGKLYTMMLDGSSPYPGDFLKSLIYGYDQSATPELTTRAIFYQLLQNHSFTSLQFIMIVILHIALYFQYDMIVREDVFSKMVFHKIGPRLSPKDLKSRLKERFPMMDDRMVEYLAREMRAHDENRQEQGHDRLNMPAAAADNNNNVINPRNDNVPPQDPNDHRNFENLRHVDELDHDEATEEHENNDSDNSLPSGDDSSRILPGSSSDNEEDEEAEGQQQQQQPEEEADYRDHIEPNPIDMWANRRAQNEFDDLIAAQQNAINRPNAPVFIPPPAQNRAGNVDQDEQDFGAAVGVPPAQANPDDQGQGPLVINLKLKLLNVIAYFIIAVVFTAIYLAISYLFPTFIGFGLLKIYFGIFKVILRGLCHLYYLSGAHIAYNGLTKLVPKVDVAMSWISDHLIHDIIYLYNGYTENTMKHSIFIRALPALTTYLTSVSIVCASSNLVSRGYGRENGMSNPTRRLIFQILFALKCTFKVFTLFFIELAGFPILAGVMLDFSLFCPILASNSRMLWVPSICAIWPPFSLFVYWTIGTLYMYWFAKYIGMIRKNIIRPGVLFFIRSPEDPNIKILHDSLIHPMSIQLSRLCLSMFIYAIFIVLGFGFHTRIFFPFMLKSNLLSVPEAYKPTSIISWKFNTILLTLYFTKRILESSSYVKPLLERYWKTIFKLCSRKLRLSSFILGKDTPTERGHIVYRNLFYKYIAAKNAEWSNQELFTKPKTLEQAEELFGQVRDVHAYFVPDGVLMRVPSSDIVSRNYVQTMFVPVTKDDKLLKPLDLERIKERNKRAAGEFGYLDEQNTEYDQYYIVYVPPDFRLRYMTLLGLVWLFASILMLGVTFISQALINFVCSFGFLPVVKLLLGERNKVYVAWKELSDISYSYLNIYYVCVGSVCLSKIAKDILHFTEGQNTLDEHAVDENEVEEVEHDIPERDINNAPVNNINNVEEGQGIFMAIFNSIFDSMLVKYNLMVFIAIMIAVIRTMVSWVVLTDGILACYNYLTIRVFGNSSYTIGNSKWFKYDESLLFVVWIISSMVNFGTGYKSLKLFFRNRNTSKLNFLKTMALELFKQGFLHMVIYVLPIIILSLVFLRDVSTKQIIDISHGSRSFTLSLNESFPTWTRMQDIYFGLLIALESFTFFFQATVLFIQWFKSTVQNVKDEVYTKGRALENLPDES
